Measured values published in PMC10371168.
No constants are given. Whether binding was seen depends on the method and setting. In cells and extracts the contact can be indirect. Tags and fused reporters may be left off the sequences shown.

Amino acid sequences for entries named in this document (tags omitted). Residues count along the entry.
UniProt Q8NE86, residues 51-351: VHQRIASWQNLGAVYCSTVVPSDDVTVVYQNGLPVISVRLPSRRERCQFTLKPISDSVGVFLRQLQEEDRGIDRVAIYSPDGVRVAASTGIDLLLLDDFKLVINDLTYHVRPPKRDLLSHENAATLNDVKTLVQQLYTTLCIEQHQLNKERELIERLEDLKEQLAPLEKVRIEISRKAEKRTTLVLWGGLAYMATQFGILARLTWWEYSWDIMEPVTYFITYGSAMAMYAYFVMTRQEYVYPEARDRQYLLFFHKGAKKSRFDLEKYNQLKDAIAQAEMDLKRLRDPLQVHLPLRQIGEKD
UniProt Q9BPX6, residues 34-476: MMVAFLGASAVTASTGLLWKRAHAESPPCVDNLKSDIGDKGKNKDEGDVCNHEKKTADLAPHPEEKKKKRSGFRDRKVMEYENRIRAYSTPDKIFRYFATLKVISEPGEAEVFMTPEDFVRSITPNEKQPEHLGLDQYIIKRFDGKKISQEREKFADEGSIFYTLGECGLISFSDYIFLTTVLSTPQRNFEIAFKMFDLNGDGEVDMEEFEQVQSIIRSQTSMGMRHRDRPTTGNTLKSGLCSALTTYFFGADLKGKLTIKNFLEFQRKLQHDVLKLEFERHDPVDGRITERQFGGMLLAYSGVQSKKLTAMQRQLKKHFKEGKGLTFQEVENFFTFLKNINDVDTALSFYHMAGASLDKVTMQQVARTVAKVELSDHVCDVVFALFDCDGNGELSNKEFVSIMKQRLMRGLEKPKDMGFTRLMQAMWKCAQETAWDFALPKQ

Molecular target: T1, HA-tagged Mrs2 (Mitochondrial RNA splicing 2) (human) (UniProt Q9HD23)
T1 sequence: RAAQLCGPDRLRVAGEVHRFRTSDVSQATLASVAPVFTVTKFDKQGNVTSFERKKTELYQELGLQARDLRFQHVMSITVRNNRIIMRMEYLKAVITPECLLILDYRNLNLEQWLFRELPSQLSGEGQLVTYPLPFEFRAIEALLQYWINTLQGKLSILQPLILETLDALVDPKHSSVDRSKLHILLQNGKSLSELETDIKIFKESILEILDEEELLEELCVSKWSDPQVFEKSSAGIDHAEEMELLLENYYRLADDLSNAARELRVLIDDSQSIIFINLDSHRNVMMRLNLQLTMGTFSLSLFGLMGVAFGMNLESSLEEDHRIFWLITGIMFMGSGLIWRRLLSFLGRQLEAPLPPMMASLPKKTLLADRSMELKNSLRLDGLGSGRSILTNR
Experiment: co-IP; HEK293 co-transfected with HA-tagged Mrs2 and Flag-tagged MCU, MICU1, MCUR1 or EMRE; RIPA lysate; immunoprecipitation with HA antibody; blot with anti-Flag

Substance | binding
Flag-tagged MCU (Mitochondrial Calcium Uniporter) (from UniProt Q8NE86 51-351) | no binding
Flag-tagged MICU1 (from UniProt Q9BPX6 34-476) | no binding
